The test concerns the target FLAG-tagged human PDE6D (human) (UniProt O43924). The test is described as follows: co-IP; anti-FLAG M2 affinity gel on lysates of P12-ICHIKAWA cells stably expressing FLAG-PDE6D, overnight at 4 °C, five washes with lysis buffer; cells treated with 100 µM DW0254 or DMSO; Western blot of the eluate.

By UniProt entry, the sequences of proteins in these tests, tags left out.
UniProt P36404: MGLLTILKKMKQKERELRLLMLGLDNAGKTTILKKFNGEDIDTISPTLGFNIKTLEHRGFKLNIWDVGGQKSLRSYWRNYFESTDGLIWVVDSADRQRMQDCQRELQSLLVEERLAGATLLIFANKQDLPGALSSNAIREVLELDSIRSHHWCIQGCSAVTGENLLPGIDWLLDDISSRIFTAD

No constants are given. Whether binding was seen depends on the method and setting. In cells and extracts the contact can be indirect. Some binding calls cover weakened binding; strength is not graded here.

This is an account of results in PMC9010429.

As for “ADP-ribosylation factor-like protein 2 (ARL2) (from UniProt P36404 1-184)”, the binding result is reported as “binds”.
